The record followed here is PMC3170336.

The experiment deals with T1, CD99 long form (retrovirally expressed in CD99 negative Ramos cells) (UniProt P14209).
T1 sequence: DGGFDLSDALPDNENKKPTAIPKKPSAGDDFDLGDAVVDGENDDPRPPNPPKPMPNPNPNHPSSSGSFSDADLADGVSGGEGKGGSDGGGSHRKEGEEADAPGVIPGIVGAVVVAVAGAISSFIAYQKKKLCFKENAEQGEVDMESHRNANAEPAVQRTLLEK
Kind of experiment: co-IP; lysates of Ramos cells expressing CD99 short form or CD99 long form precipitated with anti-CD99 mAb; Western blot with anti-MHC class I, anti-MHC class II, anti-CD81, anti-NTAL mAbs; CD99 negative Ramos cells as control.

These are yes or no findings as the source states them, for the method shown. Binding seen in cells or lysates may run through a third protein. Some results given as binding are weak or reduced against the parent protein; the word gives no strength.

B1: tetraspanin CD81 (endogenous, Ramos cells) (protein, UniProt P60033 1-236)
chain: MGVEGCTKCIKYLLFVFNFVFWLAGGVILGVALWLRHDPQTTNLLYLELGDKPAPNTFYVGIYILIAVGAVMMFVGFLGCYGAIQESQCLLGTFFTCLVILFACEVAAGIWGFVNKDQIAKDVKQFYDQALQQAVVDDDANNAKAVVKTFHETLDCCGSSTLTALTTSVLKNNLCPSGSNIISNLFKEDCHQKIDDLFSGKLYLIGIAAIVVAVIMIFEMILSMVLCCGIRNSSVY
Take B1: the binding result is “binds”.

B2: NTAL (endogenous, Ramos cells) (protein, UniProt Q9GZY6 1-243)
chain: MSSGTELLWPGAALLVLLGVAASLCVRCSRPGAKRSEKIYQQRSLREDQQSFTGSRTYSLVGQAWPGPLADMAPTRKDKLLQFYPSLEDPASSRYQNFSKGSRHGSEEAYIDPIAMEYYNWGRFSKPPEDDDANSYENVLICKQKTTETGAQQEGIGGLCRGDLSLSLALKTGPTSGLCPSASPEEDEESEDYQNSASIHQWRESRKVMGQLQREASPGPVGSPDEEDGEPDYVNGEVAATEA
B2: the binding entry is listed as “no binding”.
